These are yes or no findings as the source states them, for the method shown. Some results given as binding are weak or reduced against the parent protein; the word gives no strength.
How the values were obtained:
[1] = target: PP2A scaffold subunit Aα (residues 1-589) (human) (UniProt P30153); assay: biochemical analysis with the isolated A subunit, data not shown; also the crystal structure
[2] = target: PP2A catalytic subunit Cα (residues 1-309) (human) (UniProt P67775); assay: crystal structure of the holoenzyme
[3] = target: PP2A scaffold subunit Aα (residues 1-589) (human) (UniProt P30153); assay: crystal structure of the holoenzyme
[4] = target: heterodimeric PP2A core enzyme (full-length Aα and Cα) (human) (UniProt P30153); assay: in vitro holoenzyme assembly with methylated core enzyme
[5] = target: GST-Aα (Aα residues 1-589 as a fusion protein with glutathione S transferase) (human) (UniProt P30153); assay: glutathione sepharose pull-out from co-expressed Bα and His6-Cα
[6] = target: heterodimeric PP2A core enzyme (full-length Aα and Cα) (human) (UniProt P30153); assay: in vitro holoenzyme assembly with unmethylated core enzyme, data not shown

By UniProt entry, the sequences of proteins in these tests, tags left out. Where a name states a change or a piece, a line headed by the entry shows the natural chain unless it says otherwise.
UniProt P30153: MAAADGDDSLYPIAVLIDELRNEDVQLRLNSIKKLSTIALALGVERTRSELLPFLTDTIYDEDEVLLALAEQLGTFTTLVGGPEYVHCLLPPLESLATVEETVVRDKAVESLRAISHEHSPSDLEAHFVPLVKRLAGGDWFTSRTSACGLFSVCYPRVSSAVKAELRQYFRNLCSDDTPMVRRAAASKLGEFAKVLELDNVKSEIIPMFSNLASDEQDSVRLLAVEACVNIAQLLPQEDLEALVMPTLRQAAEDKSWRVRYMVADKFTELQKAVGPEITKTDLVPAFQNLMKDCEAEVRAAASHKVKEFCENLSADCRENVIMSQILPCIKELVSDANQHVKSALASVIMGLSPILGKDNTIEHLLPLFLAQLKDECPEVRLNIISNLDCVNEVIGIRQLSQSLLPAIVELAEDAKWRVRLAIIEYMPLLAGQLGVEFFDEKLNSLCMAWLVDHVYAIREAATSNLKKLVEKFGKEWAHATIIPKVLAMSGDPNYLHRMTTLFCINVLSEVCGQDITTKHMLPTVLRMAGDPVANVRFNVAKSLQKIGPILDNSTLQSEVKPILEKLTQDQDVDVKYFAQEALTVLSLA
UniProt P67775: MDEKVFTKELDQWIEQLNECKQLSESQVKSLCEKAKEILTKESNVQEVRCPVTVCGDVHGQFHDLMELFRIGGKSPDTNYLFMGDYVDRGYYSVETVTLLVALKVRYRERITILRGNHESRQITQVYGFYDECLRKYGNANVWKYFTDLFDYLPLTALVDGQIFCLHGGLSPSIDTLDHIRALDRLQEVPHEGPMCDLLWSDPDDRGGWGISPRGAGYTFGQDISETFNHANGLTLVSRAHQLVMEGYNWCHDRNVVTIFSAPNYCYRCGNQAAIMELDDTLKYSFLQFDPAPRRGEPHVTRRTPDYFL

binding [1]: binds
binding [2]: binds
binding [3]: binds
binding [4]: binds
binding [5]: binds
binding [6]: binds
B1: PP2A regulatory subunit Bα (residues 1-447) (protein)
chain: MAGAGGGNDIQWCFSQVKGAVDDDVAEADIISTVEFNHSGELLATGDKGGRVVIFQQEQENKIQSHSRGEYNVYSTFQSHEPEFDYLKSLEIEEKINKIRWLPQKNAAQFLLSTNDKTIKLWKISERDKRPEGYNLKEEDGRYRDPTTVTTLRVPVFRPMDLMVEASPRRIFANAHTYHINSISINSDYETYLSADDLRINLWHLEITDRSFNIVDIKPANMEELTEVITAAEFHPNSCNTFVYSSSKGTIRLCDMRASALCDRHSKLFEEPEDPSNRSFFSEIISSISDVKFSHSGRYMMTRDYLSVKVWDLNMENRPVETYQVHEYLRSKLCSLYENDCIFDKFECCWNGSDSVVMTGSYNNFFRMFDRNTKRDITLEASRENNKPRTVLKPRKVCASGKRKKDEISVDSLDFNKKILHTAWHPKENIIAVATTNNLYIFQDKVN

From patent US20090233858A1
